# Measured values from article doi:10.1101/2023.04.09.536178.
# Sequences of proteins named here, by UniProt entry; tags and fusion partners are left off.
# UniProt P15311: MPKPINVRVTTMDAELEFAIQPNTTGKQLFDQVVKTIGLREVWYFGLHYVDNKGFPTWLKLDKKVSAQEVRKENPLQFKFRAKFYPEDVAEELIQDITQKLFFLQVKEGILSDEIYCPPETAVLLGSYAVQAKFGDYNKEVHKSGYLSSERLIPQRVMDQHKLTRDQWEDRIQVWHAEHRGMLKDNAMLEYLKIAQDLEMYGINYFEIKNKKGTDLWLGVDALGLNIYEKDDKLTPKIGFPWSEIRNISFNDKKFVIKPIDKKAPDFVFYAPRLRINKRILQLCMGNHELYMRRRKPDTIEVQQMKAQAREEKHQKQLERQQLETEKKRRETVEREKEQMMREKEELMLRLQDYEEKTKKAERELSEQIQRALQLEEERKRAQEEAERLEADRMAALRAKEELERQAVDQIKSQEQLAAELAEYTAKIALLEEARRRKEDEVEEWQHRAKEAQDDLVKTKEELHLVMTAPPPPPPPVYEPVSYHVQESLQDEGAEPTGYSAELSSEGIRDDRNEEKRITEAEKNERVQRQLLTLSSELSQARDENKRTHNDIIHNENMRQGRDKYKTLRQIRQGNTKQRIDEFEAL
# UniProt O88543: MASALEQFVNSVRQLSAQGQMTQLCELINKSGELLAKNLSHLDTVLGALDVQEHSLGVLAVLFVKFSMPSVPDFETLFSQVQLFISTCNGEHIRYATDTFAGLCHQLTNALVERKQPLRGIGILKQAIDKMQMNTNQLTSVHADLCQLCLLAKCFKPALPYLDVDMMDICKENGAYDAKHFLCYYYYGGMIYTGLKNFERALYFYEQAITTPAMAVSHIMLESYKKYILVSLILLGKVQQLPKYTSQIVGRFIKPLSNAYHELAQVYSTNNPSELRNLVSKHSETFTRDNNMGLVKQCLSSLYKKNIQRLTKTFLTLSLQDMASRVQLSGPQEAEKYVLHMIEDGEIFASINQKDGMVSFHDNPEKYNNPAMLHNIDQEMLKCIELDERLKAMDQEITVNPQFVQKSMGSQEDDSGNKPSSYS
# UniProt P35569: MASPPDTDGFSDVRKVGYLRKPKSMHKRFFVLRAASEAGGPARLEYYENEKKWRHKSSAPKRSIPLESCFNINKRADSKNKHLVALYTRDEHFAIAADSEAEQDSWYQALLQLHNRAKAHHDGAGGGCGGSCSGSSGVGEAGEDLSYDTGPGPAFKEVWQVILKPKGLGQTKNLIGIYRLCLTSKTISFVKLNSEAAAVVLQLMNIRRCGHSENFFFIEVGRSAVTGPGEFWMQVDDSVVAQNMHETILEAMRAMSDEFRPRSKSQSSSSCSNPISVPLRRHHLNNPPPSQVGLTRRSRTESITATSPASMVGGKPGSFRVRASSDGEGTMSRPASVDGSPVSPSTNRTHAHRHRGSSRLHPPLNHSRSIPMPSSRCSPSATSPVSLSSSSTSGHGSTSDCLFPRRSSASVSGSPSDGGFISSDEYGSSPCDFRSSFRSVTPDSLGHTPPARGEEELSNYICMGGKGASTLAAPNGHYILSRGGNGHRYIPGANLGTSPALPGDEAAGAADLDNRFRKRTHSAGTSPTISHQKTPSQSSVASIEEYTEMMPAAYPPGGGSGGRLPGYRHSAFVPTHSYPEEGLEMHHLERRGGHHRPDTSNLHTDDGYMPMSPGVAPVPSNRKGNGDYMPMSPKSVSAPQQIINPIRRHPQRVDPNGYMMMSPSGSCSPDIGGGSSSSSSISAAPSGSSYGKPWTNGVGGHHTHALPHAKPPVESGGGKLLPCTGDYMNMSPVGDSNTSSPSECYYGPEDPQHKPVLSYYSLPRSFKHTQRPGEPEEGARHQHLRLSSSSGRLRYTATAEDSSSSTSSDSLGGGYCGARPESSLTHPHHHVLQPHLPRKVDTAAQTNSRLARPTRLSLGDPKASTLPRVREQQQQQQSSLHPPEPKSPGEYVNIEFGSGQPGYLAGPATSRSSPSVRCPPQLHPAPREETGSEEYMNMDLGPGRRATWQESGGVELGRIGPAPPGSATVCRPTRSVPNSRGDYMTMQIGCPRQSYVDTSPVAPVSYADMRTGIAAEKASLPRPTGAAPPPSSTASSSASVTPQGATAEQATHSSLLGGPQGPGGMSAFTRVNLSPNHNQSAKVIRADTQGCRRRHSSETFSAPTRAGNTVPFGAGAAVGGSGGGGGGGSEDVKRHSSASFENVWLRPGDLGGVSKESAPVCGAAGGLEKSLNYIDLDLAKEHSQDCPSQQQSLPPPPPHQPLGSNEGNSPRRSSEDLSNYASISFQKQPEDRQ
# UniProt Q8CFI0: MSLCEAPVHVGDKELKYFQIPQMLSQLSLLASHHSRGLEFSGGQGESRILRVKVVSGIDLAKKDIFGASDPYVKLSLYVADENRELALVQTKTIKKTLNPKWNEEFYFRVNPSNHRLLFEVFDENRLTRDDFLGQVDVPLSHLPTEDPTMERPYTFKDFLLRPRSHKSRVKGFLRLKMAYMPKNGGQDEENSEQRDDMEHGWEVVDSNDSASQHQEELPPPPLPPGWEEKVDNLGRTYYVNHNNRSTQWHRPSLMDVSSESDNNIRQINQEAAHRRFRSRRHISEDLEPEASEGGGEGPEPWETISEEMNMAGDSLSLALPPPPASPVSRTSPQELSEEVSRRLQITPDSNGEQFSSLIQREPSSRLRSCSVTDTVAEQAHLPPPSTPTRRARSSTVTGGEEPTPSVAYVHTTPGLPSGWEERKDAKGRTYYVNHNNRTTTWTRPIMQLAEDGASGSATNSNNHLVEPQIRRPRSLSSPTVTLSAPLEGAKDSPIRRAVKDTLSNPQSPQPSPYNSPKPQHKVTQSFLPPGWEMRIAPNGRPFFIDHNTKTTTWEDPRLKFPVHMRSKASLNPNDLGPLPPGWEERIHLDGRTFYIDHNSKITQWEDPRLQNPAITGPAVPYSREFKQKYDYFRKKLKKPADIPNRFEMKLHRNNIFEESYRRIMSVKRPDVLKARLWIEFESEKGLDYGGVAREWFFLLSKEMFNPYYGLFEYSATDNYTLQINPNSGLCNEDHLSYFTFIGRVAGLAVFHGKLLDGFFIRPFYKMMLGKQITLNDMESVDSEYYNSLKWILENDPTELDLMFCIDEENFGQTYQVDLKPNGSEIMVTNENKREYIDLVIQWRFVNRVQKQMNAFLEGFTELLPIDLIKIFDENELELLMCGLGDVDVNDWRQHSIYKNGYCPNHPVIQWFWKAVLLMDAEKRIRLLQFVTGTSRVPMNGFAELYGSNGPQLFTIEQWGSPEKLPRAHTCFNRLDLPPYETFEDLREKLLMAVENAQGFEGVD
# B1: autophagy-related gene 7 (Atg7), endogenous (protein, UniProt Q9D906 1-698)
# chain: MGDPGLAKLQFAPFNSALDVGFWHELTQKKLNEYRLDEAPKDIKGYYYNGDSAGLPTRLTLEFSAFDMSASTPAHCCPAMGTLHNTNTLEAFKTADKKLLLEQSANEIWEAIKSGAALENPMLLNKFLLLTFADLKKYHFYYWFCCPALCLPESIPLIRGPVSLDQRLSPKQIQALEHAYDDLCRAEGVTALPYFLFKYDDDTVLVSLLKHYSDFFQGQRTKITVGVYDPCNLAQYPGWPLRNFLVLAAHRWSGSFQSVEVLCFRDRTMQGARDVTHSIIFEVKLPEMAFSPDCPKAVGWEKNQKGGMGPRMVNLSGCMDPKRLAESSVDLNLKLMCWRLVPTLDLDKVVSVKCLLLGAGTLGCNVARTLMGWGVRHVTFVDNAKISYSNPVRQPLYEFEDCLGGGKPKALAAAERLQKIFPGVNARGFNMSIPMPGHPVNFSDVTMEQARRDVEQLEQLIDNHDVIFLLMDTRESRWLPTVIAASKRKLVINAALGFDTFVVMRHGLKKPKQQGAGDLCPSHLVAPADLGSSLFANIPGYKLGCYFCNDVVAPGDSTRDRTLDQQCTVSRPGLAVIAGALAVELMVSVLQHPEGGYAIASSSDDRMNEPPTSLGLVPHQIRGFLSRFDNVLPVSLAFDKCTACSPKVLDQYEREGFTFLAKVFNSSHSFLEDLTGLTLLHQETQAAEIWDMSDEETV
# B2: Myo1e (protein, UniProt E9Q634 1-1107)
# chain: MGSKGAYRYHWQSHNVKHSGVDDMVLLSKITESSIVENLKKRYMDDYIFTYIGSVLISVNPFKQMPYFGEKEVEMYQGAAQYENPPHIYALADSMYRNMIIDRENQCVIISGESGAGKTVAAKYIMSYVSRVSGGGPKVQHVKDIILQSNPLLEAFGNAKTVRNNNSSRFGKYFEIQFSPGGEPDGGKISNFLLEKSRVVMRNPGERSFHIFYQLIEGASPEQKQSLGITSMDYYYYLSLSGSYKVDDIDDKRDFQETLHAMNVIGIFSEEQTLVLQIVAGILHLGNISFKEVGNYAAVESEEFLAFPAYLLGINQDRLKEKLTSRQMDSKWGGKSESIHVTLNVEQACYTRDALAKALHARVFDFLVDSINKAMEKDHEEYNIGVLDIYGFEIFQKNGFEQFCINFVNEKLQQIFIELTLKAEQEEYVQEGIRWTPIEYFNNKIVCDLIESKVNPPGIMSILDDVCATMHAVGEGADQTLLQKLQMQIGSHEHFNSWNQGFIIHHYAGKVSYDMDGFCERNRDVLFMDLIELMQSSELPFIKSLFPENLQADKKGRPTTAGSKIKKQANDLVSTLMKCTPHYIRCIKPNETKKPKDWEESRVKHQVEYLGLKENIRVRRAGYAYRRVFQKFLQRYAILTKATWPVWRGDEKQGVLHLLQSVNMDSDQFQLGRSKVFIKAPESLFLLEEMRERKYDGYARVIQKTWRKFVARKKYVQMREEASDLLLNKKERRRNSINRNFIGDYIGMEERPELQQFVGKREKIDFADTVTKYDRRFKGVKRDLLLTPKCLYLIGREKVKQGPDKGVVKEVLKRRIEVERILSVSLSTMQDDIFILHEQEYDSLLESVFKTEFLSLLAKRYEEKTQKQLPLKFSNTLELKLKKENWGPWSAGGSRQVQFHQGFGDLAILKPSNKVLQVSIGPGLPKNSRPTRRNTVTSRGYPGGTKNNYPMRAAPAPPGCHQNGVIRNQFVPPPHAFGNQRSNQKSLYTSMARPPLPRQQSTGSDRLSQTPESLDFLKVPDQGVAGVRRQTSSRPPPAGGRPKPQPKPKPQVPQCKALYAYDAQDTDELSFNANDIIDIIKEDPSGWWTGRLRGKQGLFPNNYVTKI
# B3: Rala (protein, UniProt P63321 1-206)
# chain: MAANKPKGQNSLALHKVIMVGSGGVGKSALTLQFMYDEFVEDYEPTKADSYRKKVVLDGEEVQIDILDTAGQEDYAAIRDNYFRSGEGFLCVFSITEMESFAATADFREQILRVKEDENVPFLLVGNKSDLEDKRQVSVEEAKNRADQWNVNYVETSAKTRANVDKVFFDLMREIRARKMEDSKEKNGKKKRKSLAKRIRERCCIL
# B4: Anks1a (protein, UniProt P59672 1-1150)
# chain: MGKEQELLEAARTGHLPAVEKLLSGKRLSSGFGGGGGGSGSGGGSGGGGLGSSSHPLSSLLSMWRGPNVNCVDSTGYTPLHHAALNGHRDVVEVLLRNDALTNVADSKGCYPLHLAAWKGDAQIVRLLIQQGPSHTRVNEQNALEIRELKKYGPFDPYINAKNNDNETALHCAAQYGHTEVVKALLEELTDPTMRNNKFETPLDLAALYGRLEVVKLLLGAHPNLLSCSTRKHTPLHLAARNGHKAVVQVLLDAGMDSNYQTEMGSALHEAALFGKTDVVQILLAAGIDVNIKDNRGLTALDTVRDLPSQKSQQIAALIEDHMTGKRSVKEVDRTSTAQLPLLSNTDAIAPMSQGSMEKTVTELILHFDTHADEEGPYEALYNAVSCHSLDSTASGRSSDRDSMNKEAEATGTRAAGVRPRERPPPPAKPPPDEEEEERVDKKYFPLAASEGLAVRPRIQSSAPQEEEEHPYELLLTAETKKLGTTDGRTEDHRQSGSGRSQDSVEGQDGQVPEQFSGLLHGSSPVCEVGQDPFQLLTAPSQSHPESSQQDACHEASMQLEEPGVQGTEPPQPGVPDQSKRVGLPAGLTALASRTYLDALTHTVPLRPAGAEEEDQSGPRSRAPPTSKPKAELKLSRSLSKSDSDLLTCSPTEDATMGSRSESLSNCSIGKKRLEKSPSFASEWDEIEKIMSSIGEGIDFSQEQQKISGSRTLEQSVGEWLESIGLQQYESKLLLNGFDDVRFLGSNVMEEQDLREIGISDPQHRRKLLQAARSLPKVKALGYDGVSPTSVPSWLDSLGLQDYVHSFLSSGYSSIDTVKNLWELELVNVLKVHLLGHRKRIIASLADRPYEEPPQKPPRFSQLRCQDLISQTSSPLSQNDSCTGRSADLLLPSADTSRRRHDSLPDPGTASRADRFRVQEEPSETKLTLRPPSLAAPYAPVQSWQHQPEKLIFESCGYEANYLGSMLIKDLRGTESTQDACAKMRKSTEHMKKIPTIILSITYKGVKFIDASNKNVIAEHEIRNISCAAQDPEDLCTFAYITKDLQTSHHYCHVFSTVDVNLTYEIILTLGQAFEVAYQLALQAQKSRTMAASAASMIETKSSKPVPKPRVGMRKSALEPPDSDQEAPSHASVSWIVDPKPDSKRSLSTN
# Target: Astro-Ezrin-BioID (Ezrin WT-BioID2-HA) (UniProt P15311)
# Test: proximity labelling; in vivo BioID: AAV Astro-Ezrin-BioID against Astro-Cyto-BioID control in cortical astrocytes of WT and LRRK2 G2019S ki/ki mice, biotin at P18-P20, cortices at P21; streptavidin agarose purification, LC-MS/MS
row,binding,Molecule
1,binds,Cops3 (from UniProt O88543 1-423)
2,binds,Irs1 (from UniProt P35569 1-1233)
3,binds,Nedd4l (from UniProt Q8CFI0 1-1004)

# Target: Astro-Ezrin-BioID (Ezrin WT-BioID2-HA) (UniProt P15311)
# Test: as above
# Remark: another data set of the same source
row,binding,Molecule
1,binds,B1
2,binds,B2
3,binds,B3
4,binds,B4

# No constants are given. Whether binding was seen depends on the method and setting. Binding seen in cells or lysates may run through a third protein. A yes stands for co-enrichment or nearness to the bait. Other partners may have been found.
